Experimental data reported in the supplement of paper PMC10849652.
The list shows a part of the results.

The chains behind the UniProt entries cited, without tags or fusion partners. Where a name states a change or a piece, a line headed by the entry shows the natural chain unless it says otherwise.
UniProt Q9NNW7, whole entry, looked up: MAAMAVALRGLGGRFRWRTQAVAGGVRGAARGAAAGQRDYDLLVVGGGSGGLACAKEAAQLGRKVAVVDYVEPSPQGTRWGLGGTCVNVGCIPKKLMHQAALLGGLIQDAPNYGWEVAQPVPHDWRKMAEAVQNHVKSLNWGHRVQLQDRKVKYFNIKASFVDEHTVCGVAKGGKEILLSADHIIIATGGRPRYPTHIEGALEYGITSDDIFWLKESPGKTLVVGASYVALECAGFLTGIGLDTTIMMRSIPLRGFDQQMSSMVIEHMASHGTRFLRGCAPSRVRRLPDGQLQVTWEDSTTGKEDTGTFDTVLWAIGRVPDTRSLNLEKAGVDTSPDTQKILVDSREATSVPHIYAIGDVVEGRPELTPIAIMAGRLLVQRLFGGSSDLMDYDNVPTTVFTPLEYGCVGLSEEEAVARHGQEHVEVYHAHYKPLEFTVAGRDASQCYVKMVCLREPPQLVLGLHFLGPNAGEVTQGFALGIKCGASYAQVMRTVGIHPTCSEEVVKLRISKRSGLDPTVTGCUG
UniProt P49459, whole entry, looked up: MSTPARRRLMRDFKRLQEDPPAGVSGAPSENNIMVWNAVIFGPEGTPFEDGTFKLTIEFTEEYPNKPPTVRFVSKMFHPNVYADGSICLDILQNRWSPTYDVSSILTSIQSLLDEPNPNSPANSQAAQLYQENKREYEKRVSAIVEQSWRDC
UniProt O15042: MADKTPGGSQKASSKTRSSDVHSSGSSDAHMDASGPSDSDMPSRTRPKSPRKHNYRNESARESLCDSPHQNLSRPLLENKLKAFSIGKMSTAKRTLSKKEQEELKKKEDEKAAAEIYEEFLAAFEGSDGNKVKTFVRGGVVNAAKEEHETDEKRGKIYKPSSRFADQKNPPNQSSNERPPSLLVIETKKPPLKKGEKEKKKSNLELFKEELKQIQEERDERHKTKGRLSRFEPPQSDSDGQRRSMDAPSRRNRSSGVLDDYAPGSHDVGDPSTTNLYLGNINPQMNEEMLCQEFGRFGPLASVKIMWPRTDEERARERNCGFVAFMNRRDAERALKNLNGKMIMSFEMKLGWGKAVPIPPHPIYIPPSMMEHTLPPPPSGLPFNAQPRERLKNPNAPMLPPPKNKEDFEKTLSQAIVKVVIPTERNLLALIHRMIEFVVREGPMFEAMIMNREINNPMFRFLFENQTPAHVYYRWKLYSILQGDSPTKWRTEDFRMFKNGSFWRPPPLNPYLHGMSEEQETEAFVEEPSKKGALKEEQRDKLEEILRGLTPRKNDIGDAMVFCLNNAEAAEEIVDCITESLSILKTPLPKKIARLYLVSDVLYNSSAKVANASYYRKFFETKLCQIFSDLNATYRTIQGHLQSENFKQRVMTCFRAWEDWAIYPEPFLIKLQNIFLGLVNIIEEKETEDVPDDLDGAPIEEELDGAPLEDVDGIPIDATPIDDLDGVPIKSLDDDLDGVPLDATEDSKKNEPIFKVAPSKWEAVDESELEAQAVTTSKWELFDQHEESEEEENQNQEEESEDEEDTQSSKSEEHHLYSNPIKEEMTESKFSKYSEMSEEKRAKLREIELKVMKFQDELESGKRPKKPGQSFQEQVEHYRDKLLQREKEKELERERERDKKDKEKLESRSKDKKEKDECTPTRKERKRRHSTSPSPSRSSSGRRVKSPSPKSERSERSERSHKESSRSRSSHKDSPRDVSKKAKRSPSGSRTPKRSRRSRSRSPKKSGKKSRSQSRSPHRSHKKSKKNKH
UniProt Q8NG68: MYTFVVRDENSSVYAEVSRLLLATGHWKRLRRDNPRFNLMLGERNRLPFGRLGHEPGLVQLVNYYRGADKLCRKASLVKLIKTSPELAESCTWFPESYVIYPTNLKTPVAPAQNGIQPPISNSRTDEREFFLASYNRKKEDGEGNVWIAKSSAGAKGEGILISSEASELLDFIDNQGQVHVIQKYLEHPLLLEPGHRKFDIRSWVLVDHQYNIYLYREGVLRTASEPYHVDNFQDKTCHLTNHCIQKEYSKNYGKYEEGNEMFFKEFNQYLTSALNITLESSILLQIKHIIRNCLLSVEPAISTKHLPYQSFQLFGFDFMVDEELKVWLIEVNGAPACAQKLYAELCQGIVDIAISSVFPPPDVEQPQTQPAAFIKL
UniProt Q9BTX7: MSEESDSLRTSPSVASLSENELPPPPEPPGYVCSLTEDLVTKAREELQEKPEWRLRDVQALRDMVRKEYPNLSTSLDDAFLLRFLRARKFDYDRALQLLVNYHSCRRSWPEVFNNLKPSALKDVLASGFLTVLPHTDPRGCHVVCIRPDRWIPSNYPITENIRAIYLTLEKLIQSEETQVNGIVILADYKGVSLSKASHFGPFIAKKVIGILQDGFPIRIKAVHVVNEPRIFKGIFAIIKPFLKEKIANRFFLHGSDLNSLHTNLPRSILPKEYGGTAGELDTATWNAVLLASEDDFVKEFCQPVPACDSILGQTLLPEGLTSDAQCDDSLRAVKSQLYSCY
UniProt Q9GZX9: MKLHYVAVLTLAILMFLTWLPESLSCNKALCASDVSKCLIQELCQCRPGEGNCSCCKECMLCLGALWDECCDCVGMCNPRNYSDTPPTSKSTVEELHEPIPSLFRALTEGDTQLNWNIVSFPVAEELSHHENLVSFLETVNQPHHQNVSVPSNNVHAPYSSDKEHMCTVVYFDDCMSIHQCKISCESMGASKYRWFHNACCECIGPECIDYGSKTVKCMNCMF
UniProt Q9UJK0: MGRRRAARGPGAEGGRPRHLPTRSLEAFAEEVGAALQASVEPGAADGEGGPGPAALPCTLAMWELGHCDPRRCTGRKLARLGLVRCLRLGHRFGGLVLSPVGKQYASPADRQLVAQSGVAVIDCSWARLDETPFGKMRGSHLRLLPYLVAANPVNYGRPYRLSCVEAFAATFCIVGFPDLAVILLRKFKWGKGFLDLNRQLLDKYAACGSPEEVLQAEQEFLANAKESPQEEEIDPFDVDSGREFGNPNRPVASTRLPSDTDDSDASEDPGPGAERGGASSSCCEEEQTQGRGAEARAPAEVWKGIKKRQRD
UniProt Q9Y5U2: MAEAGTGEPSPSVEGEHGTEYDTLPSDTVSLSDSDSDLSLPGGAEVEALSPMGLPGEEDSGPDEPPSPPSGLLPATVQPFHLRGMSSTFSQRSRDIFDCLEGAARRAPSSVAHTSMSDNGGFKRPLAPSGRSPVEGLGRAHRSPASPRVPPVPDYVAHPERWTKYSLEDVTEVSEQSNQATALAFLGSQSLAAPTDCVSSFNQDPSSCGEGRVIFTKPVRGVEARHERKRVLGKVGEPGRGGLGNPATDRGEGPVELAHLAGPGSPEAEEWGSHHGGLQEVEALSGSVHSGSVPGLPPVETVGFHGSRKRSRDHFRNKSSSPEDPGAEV
UniProt P61081: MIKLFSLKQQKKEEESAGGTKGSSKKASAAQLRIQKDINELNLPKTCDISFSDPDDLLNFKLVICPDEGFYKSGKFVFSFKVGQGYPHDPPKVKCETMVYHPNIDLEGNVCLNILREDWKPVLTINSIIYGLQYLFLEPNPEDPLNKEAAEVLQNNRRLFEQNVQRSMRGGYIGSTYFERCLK
UniProt Q8NBS9: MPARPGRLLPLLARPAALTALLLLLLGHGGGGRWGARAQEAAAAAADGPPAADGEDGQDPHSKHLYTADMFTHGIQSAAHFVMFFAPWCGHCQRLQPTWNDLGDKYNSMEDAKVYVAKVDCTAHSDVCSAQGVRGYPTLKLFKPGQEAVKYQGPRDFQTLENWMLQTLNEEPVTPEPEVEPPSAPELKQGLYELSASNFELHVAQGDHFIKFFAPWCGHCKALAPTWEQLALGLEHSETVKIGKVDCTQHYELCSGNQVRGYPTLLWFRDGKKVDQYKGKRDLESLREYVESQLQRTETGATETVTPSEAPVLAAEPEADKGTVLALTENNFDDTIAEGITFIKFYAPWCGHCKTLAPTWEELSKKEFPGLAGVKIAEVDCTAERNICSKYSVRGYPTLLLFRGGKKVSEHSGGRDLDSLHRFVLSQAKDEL
UniProt P40222: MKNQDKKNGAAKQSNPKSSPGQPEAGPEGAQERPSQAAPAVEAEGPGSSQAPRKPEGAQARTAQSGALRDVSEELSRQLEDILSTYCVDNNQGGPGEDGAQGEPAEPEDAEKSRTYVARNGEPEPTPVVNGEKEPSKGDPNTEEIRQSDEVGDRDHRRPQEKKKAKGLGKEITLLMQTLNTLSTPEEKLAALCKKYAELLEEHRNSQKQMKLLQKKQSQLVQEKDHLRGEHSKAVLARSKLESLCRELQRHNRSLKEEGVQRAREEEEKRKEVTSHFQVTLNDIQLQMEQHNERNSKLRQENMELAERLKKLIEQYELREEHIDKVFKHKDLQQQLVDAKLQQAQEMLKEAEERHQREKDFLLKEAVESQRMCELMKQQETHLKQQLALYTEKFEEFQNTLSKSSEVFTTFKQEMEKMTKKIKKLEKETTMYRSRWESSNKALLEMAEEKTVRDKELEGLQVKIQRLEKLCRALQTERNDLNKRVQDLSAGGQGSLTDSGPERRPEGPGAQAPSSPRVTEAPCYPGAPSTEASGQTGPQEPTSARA
UniProt Q16222: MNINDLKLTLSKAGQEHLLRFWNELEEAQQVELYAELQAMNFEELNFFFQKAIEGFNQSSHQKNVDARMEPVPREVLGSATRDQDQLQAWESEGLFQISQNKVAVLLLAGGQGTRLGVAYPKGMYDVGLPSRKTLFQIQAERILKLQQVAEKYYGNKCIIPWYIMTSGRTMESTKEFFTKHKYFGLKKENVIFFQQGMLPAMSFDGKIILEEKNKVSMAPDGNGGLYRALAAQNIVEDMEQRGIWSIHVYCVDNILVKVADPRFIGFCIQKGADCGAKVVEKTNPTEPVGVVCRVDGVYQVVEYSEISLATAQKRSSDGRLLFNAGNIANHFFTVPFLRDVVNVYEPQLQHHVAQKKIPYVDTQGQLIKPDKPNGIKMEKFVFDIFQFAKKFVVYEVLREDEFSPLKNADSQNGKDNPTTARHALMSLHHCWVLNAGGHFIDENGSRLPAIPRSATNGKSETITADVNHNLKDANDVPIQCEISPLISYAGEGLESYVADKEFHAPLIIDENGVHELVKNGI
UniProt Q96J42: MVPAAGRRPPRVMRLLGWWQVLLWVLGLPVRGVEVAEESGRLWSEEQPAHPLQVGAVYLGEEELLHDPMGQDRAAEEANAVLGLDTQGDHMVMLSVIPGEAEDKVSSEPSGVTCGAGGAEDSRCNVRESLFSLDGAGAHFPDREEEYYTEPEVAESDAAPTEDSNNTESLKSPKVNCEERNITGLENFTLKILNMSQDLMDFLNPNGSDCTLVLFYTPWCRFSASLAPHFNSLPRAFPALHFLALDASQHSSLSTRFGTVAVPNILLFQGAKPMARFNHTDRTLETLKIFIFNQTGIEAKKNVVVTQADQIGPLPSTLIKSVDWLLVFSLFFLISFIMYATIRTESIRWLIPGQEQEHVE
UniProt Q9H832: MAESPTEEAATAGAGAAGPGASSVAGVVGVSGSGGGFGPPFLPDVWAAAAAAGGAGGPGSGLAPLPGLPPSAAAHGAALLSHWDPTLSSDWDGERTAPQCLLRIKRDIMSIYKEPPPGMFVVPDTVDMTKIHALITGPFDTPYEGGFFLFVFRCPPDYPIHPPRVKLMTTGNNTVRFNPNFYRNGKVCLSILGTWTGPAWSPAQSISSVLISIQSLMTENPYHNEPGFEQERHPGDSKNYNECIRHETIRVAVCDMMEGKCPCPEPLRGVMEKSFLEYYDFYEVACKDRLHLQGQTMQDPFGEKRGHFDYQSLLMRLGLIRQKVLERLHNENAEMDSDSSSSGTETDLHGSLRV

Experiments:
Assay in all cases: log2 fold change, soluble protein after heating vs DMSO (PISA); higher = thermal stabilisation; K562 cells, 10 uM, 30 min; active = over 0.2 and 3.5 SD of the protein, either way, in both replicates (recomputed)
[1] = compound: CS(=O)(=O)c1ccc(-c2cnc(N)c(C(=O)Nc3ccccc3)n2)cc1
How it was run: (§1)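 Aliquots of K562 cells (2×10^6 cells/mL) treated with 10 μM compound for 30 min were heated for 3 min over 48°C-58°C. After pooling and extraction in PBS with 0.5% NP-40 at 4°C, soluble protein from a 21,000xg, 90 min spin was quantified by TMTpro 16plex LC-MS/MS with channel sums equalised. Thermal stability is expressed against control samples, from duplicates, as a log2 fold change.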

crizotinib = compound: C[C@@H](Oc1cc(-c2cnn(C3CCNCC3)c2)cnc1N)c1c(Cl)ccc(F)c1Cl [crizotinib]
How it was run: as §1

[2] = compound: C[C@@H]1COCCN1C2=NC(=NC(=C2)C3(CC3)S(=O)(=O)C)C4=C5C=CNC5=CC=C4
How it was run: as §1

[3] = compound: C[C@H](C1=CC=C(C=C1)C(=O)NC2=C3C=CNC3=NC=C2)N
How it was run: as §1

duvelisib = compound: C[C@H](Nc1ncnc2nc[nH]c12)c1cc2cccc(Cl)c2c(=O)n1-c1ccccc1 [duvelisib]
How it was run: as §1

gandotinib = compound: Cc1cc(Nc2cc(CN3CCOCC3)c3nc(C)c(Cc4ccc(Cl)cc4F)n3n2)n[nH]1 [gandotinib]
How it was run: as §1

tozasertib = compound: Cc1cc(Nc2cc(N3CCN(C)CC3)nc(Sc3ccc(NC(=O)C4CC4)cc3)n2)n[nH]1 [tozasertib]
How it was run: as §1

[4] = compound: Cc1cc(SCc2sc(-c3ccc(C(F)(F)F)cc3)nc2C)ccc1OCC(=O)O
How it was run: as §1

doramapimod = compound: Cc1ccc(-n2nc(C(C)(C)C)cc2NC(=O)Nc2ccc(OCCN3CCOCC3)c3ccccc23)cc1 [doramapimod]
How it was run: as §1

ispinesib = compound: Cc1ccc(C(=O)N(CCCN)[C@@H](c2nc3cc(Cl)ccc3c(=O)n2Cc2ccccc2)C(C)C)cc1 [ispinesib]
How it was run: as §1

bafetinib = compound: Cc1ccc(NC(=O)c2ccc(CN3CC[C@H](N(C)C)C3)c(C(F)(F)F)c2)cc1Nc1nccc(-c2cncnc2)n1 [bafetinib]
How it was run: as §1

[5] = compound: Cc1cccc(CC(=O)N2CCc3c2ccc(-c2cn(C)c4ncnc(N)c24)c3F)n1
How it was run: as §1

nilotinib = compound: Cc1cn(-c2cc(NC(=O)c3ccc(C)c(Nc4nccc(-c5cccnc5)n4)c3)cc(C(F)(F)F)c2)cn1 [nilotinib]
How it was run: as §1

[6] = compound: Cc1nc(Nc2n[nH]c3c2CN(C(=O)N[C@H](CN(C)C)c2ccccc2)C3(C)C)c2sccc2n1
How it was run: as §1

dasatinib = compound: Cc1nc(Nc2ncc(C(=O)Nc3c(C)cccc3Cl)s2)cc(N2CCN(CCO)CC2)n1 [dasatinib]
How it was run: as §1

[7] = compound: Cc1ncc(-c2ccnc(Nc3ccc(S(C)(=O)=O)cc3)n2)n1C(C)C
How it was run: as §1

[8] = compound: Cn1cc(-c2ccc3c(c2)CCN3C(=O)Cc2cccc(C(F)(F)F)c2)c2c(N)ncnc21
How it was run: as §1

[9] = compound: Cn1cc(-c2ccc3nnc(C(F)(F)c4ccc5ncccc5c4)n3n2)cn1
How it was run: as §1

tipifarnib = compound: Cn1cncc1[C@@](N)(c1ccc(Cl)cc1)c1ccc2c(c1)c(-c1cccc(Cl)c1)cc(=O)n2C [tipifarnib]
How it was run: as §1

mubritinib = compound: FC(F)(F)c1ccc(/C=C/c2nc(COc3ccc(CCCCn4ccnn4)cc3)co2)cc1 [mubritinib]
How it was run: as §1

Measured: log2 fold change

TXNRD2 (UniProt Q9NNW7)
inactive: [1] 0.024 | crizotinib -0.006 | [2] -0.073 | [3] -0.107 | duvelisib 0.065 | gandotinib -0.014 | tozasertib -0.021 | [4] -0.024 | doramapimod 0.004 | ispinesib 0.007 | bafetinib -0.026 | [5] -0.013 | nilotinib 0.1 | [6] -0.039 | dasatinib 0.013 | [7] 0.015 | [8] -0.024 | [9] 0.014 | tipifarnib 0.015 | mubritinib -0.128

UBE2A (UniProt P49459)
inactive: [1] 0.006 | crizotinib -0.033 | [2] 0.013 | [3] -0.145 | duvelisib 0.023 | gandotinib -0.147 | tozasertib 0.054 | [4] -0.038 | doramapimod -0.149 | ispinesib 0.067 | bafetinib -0.113 | [5] -0.047 | nilotinib -0.026 | [6] -0.023 | dasatinib -0.145 | [7] 0.03 | [8] 0.063 | [9] -0.029 | tipifarnib -0.032 | mubritinib 0.069

U2SURP (UniProt O15042)
inactive: [1] -0.024 | crizotinib -0.145 | [2] 0.062 | [3] -0.01 | duvelisib 0.011 | gandotinib -0.035 | tozasertib 0.111 | [4] 0.064 | doramapimod -0.034 | ispinesib -0.034 | bafetinib 0.131 | [5] 0.033 | nilotinib -0.152 | [6] -0.339 | dasatinib -0.136 | [7] 0.014 | [8] -0.006 | [9] 0.031 | tipifarnib 0.037 | mubritinib -0.037

TTL (UniProt Q8NG68)
inactive: [1] 0.015 | crizotinib -0.027 | [2] 0.083 | [3] 0.076 | duvelisib 0.016 | gandotinib 0.053 | tozasertib 0.085 | [4] 0.007 | doramapimod 0.012 | ispinesib -0.04 | bafetinib -0.043 | [5] 0.033 | nilotinib 0.085 | [6] -0.029 | dasatinib -0.057 | [7] -0.034 | [8] 0.127 | [9] 0.009 | tipifarnib -0.029 | mubritinib 0.033

TTPAL (UniProt Q9BTX7)
inactive: [1] -0.009 | crizotinib 0.073 | [2] 0.128 | [3] -0.113 | duvelisib -0.06 | gandotinib -0.073 | tozasertib -0.063 | [4] -0.138 | doramapimod -0.038 | ispinesib 0.144 | bafetinib -0.059 | [5] 0.001 | nilotinib 0.001 | [6] 0.011 | dasatinib 0.06 | [7] 0.041 | [8] 0.043 | [9] -0.051 | tipifarnib 0.002

TWSG1 (UniProt Q9GZX9)
inactive: [1] 0.003 | crizotinib 0.01 | [2] 0 | [3] -0.031 | duvelisib 0.028 | gandotinib 0.027 | tozasertib 0.01 | [4] -0.029 | doramapimod -0.021 | ispinesib 0.104 | bafetinib -0.049 | [5] -0.072 | nilotinib -0.019 | [6] 0.015 | dasatinib -0.084 | [7] -0.011 | [8] 0.042 | [9] -0.053 | tipifarnib 0.009 | mubritinib 0.012

TSR3 (UniProt Q9UJK0)
inactive: [1] -0.018 | crizotinib 0.086 | [2] 0.105 | [3] 0.083 | duvelisib 0.029 | gandotinib 0.015 | tozasertib -0.043 | [4] -0.061 | doramapimod 0.003 | ispinesib -0.043 | bafetinib 0.052 | [5] -0.036 | nilotinib 0.021 | [6] 0.019 | dasatinib 0.042 | [7] 0 | [8] -0.043 | [9] -0.019 | tipifarnib 0.1 | mubritinib 0.01

TSSC4 (UniProt Q9Y5U2)
inactive: [1] -0.036 | crizotinib 0.089 | [2] -0.005 | [3] 0.09 | duvelisib -0.176 | gandotinib 0.136 | tozasertib 0.005 | [4] 0.05 | doramapimod 0.022 | ispinesib -0.131 | bafetinib -0.032 | [5] -0.194 | nilotinib 0.022 | [6] 0.067 | dasatinib -0.045 | [7] -0.021 | [8] -0.015 | [9] -0.11 | tipifarnib 0.056 | mubritinib -0.096

UBE2M (UniProt P61081)
inactive: [1] 0.027 | crizotinib -0.019 | [2] 0.105 | [3] -0.021 | duvelisib 0.063 | gandotinib -0.019 | tozasertib 0.008 | [4] 0.01 | doramapimod -0.049 | ispinesib 0.046 | bafetinib -0.05 | [5] -0.003 | nilotinib -0.048 | [6] -0.007 | dasatinib -0.092 | [7] -0.011 | [8] 0.101 | [9] 0.003 | tipifarnib -0.049 | mubritinib 0.052

TXNDC5 (UniProt Q8NBS9)
inactive: [1] -0.008 | crizotinib 0.069 | [2] -0.028 | [3] -0.05 | duvelisib 0.016 | gandotinib 0.048 | tozasertib 0.021 | [4] -0.027 | doramapimod -0.044 | ispinesib 0.063 | bafetinib -0.035 | [5] -0.041 | nilotinib -0.02 | [6] 0.013 | dasatinib 0.025 | [7] -0.012 | [8] -0.014 | [9] 0 | tipifarnib 0.058 | mubritinib -0.005

2 successive entries already listed:
TSR3 (UniProt Q9UJK0)
inactive: [1] -0.018 | crizotinib 0.086 | [2] 0.105 | [3] 0.083 | duvelisib 0.029 | gandotinib 0.015 | tozasertib -0.043 | [4] -0.061 | doramapimod 0.003 | ispinesib -0.043 | bafetinib 0.052 | [5] -0.036 | nilotinib 0.021 | [6] 0.019 | dasatinib 0.042 | [7] 0 | [8] -0.043 | [9] -0.019 | tipifarnib 0.1 | mubritinib 0.01

TSSC4 (UniProt Q9Y5U2)
inactive: [1] -0.036 | crizotinib 0.089 | [2] -0.005 | [3] 0.09 | duvelisib -0.176 | gandotinib 0.136 | tozasertib 0.005 | [4] 0.05 | doramapimod 0.022 | ispinesib -0.131 | bafetinib -0.032 | [5] -0.194 | nilotinib 0.022 | [6] 0.067 | dasatinib -0.045 | [7] -0.021 | [8] -0.015 | [9] -0.11 | tipifarnib 0.056 | mubritinib -0.096

The list continues:

TTC27 (UniProt Q6P3X3)
inactive: [1] 0.034 | crizotinib -0.237 | [2] -0.072 | [3] 0.27 | duvelisib -0.132 | gandotinib -0.002 | tozasertib 0.085 | [4] 0.222 | doramapimod 0.17 | ispinesib -0.213 | bafetinib 0.077 | [5] 0.123 | nilotinib -0.089 | [6] -0.162 | dasatinib -0.09 | [7] 0.054 | [8] -0.105 | [9] -0.129 | tipifarnib -0.052 | mubritinib -0.082

TXLNA (UniProt P40222)
inactive: [1] 0.003 | crizotinib 0.025 | [2] 0.012 | [3] -0.112 | duvelisib 0.03 | gandotinib -0.022 | tozasertib -0.002 | [4] 0.004 | doramapimod -0.019 | ispinesib 0.063 | bafetinib -0.006 | [5] -0.015 | nilotinib 0.002 | [6] -0.023 | dasatinib -0.038 | [7] -0.009 | [8] 0.019 | [9] -0.02 | tipifarnib -0.016 | mubritinib 0.073

TTN isoform 12 (UniProt Q8WZ42)
inactive: [1] 0.116 | crizotinib 0.068 | [2] 0.034 | [3] 0.219 | duvelisib 0.274 | gandotinib -0.008 | tozasertib -0.134 | [4] -0.134 | doramapimod -0.053 | ispinesib -0.114 | bafetinib -0.239 | [5] -0.274 | nilotinib 0.001 | [6] 0.097 | dasatinib 0.138 | [7] -0.047 | [8] -0.012 | [9] 0.103 | tipifarnib 0.159 | mubritinib 0.034

UAP1 (UniProt Q16222)
inactive: [1] 0.037 | crizotinib 0.012 | [2] 0.081 | [3] -0.116 | duvelisib 0.032 | gandotinib -0.043 | tozasertib -0.022 | [4] 0.014 | doramapimod -0.043 | ispinesib 0.019 | bafetinib 0.01 | [5] -0.008 | nilotinib -0.019 | [6] 0.017 | dasatinib -0.018 | [7] -0.006 | [8] 0.07 | [9] -0.012 | tipifarnib -0.063 | mubritinib 0.005

TXNDC15 (UniProt Q96J42)
inactive: [1] 0.069 | crizotinib -0.08 | [2] 0.099 | [3] 0.179 | duvelisib 0.023 | gandotinib -0.062 | tozasertib -0.147 | [4] 0.023 | doramapimod 0.068 | ispinesib 0.013 | bafetinib -0.002 | [5] -0.063 | nilotinib 0.059 | [6] -0.032 | dasatinib -0.084 | [7] -0.028 | [8] 0.018 | [9] 0.035 | tipifarnib 0.003 | mubritinib -0.101

UBE2Z (UniProt Q9H832)
inactive: [1] 0.045 | crizotinib -0.044 | [2] 0.046 | [3] -0.017 | duvelisib 0.074 | gandotinib -0.045 | tozasertib -0.025 | [4] -0.007 | doramapimod 0.007 | ispinesib -0.008 | bafetinib -0.054 | [5] 0.055 | nilotinib 0.031 | [6] -0.005 | dasatinib -0.026 | [7] 0.004 | [8] 0.019 | [9] 0.009 | tipifarnib -0.036 | mubritinib 0.023
